Laboratory results as given in PubChem BioAssay AID588590 (National Center for Advancing Translational Sciences (NCATS), 2011).
Hit rate of the full screen: of about 390,000 compounds, about 4,000 (1%) were called active. The inconclusive results got no clear call from the source; some entries with a clear call stand among them for comparison. The call rests on the fitted dose curve; in most records, active means well fitted inhibition curve with a large enough effect; inconclusive means small, poorly fitted or top-dose-only effect, or another doubt; inactive means no such curve, though single readings can be large or run the other way. Where the call is inconclusive, the potency comes from a doubtful curve fit.

By UniProt entry, the sequences of proteins in these tests, tags left out. Where a name states a change or a piece, a line headed by the entry shows the natural chain unless it says otherwise.
UniProt Q9UNA4: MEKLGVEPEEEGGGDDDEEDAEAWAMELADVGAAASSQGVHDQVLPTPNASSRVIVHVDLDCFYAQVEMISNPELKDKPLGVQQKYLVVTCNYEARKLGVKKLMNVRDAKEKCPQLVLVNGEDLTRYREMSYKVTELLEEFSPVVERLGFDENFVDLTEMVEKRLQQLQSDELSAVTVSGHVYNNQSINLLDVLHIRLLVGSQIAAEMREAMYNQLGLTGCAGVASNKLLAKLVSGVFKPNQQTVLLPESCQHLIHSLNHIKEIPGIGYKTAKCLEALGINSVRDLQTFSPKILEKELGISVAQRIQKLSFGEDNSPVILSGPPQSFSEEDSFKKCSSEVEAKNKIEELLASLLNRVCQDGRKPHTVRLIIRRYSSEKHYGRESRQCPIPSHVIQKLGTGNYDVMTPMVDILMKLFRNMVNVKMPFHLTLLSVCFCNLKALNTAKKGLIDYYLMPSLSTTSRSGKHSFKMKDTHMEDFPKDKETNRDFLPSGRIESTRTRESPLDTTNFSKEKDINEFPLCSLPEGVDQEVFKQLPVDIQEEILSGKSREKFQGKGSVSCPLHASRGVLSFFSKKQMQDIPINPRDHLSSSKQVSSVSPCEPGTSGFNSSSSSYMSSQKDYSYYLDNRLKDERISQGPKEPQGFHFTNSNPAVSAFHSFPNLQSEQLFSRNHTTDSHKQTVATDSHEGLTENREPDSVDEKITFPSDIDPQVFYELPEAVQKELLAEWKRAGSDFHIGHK

Each molecule was assayed against DNA polymerase iota (Homo sapiens) (UniProt Q9UNA4) (assay: qHTS for Inhibitors of Polymerase Iota). Details: Pol iota fluorescent replication assay, 10 min; series mostly up to 115 µM; activity, negative = inhibition: at the top concentration.
In short: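 Fluorescent replication assay read twice, at 0 min and 10 min after adding 50 nM (final) substrate. Enzyme (10 nM) and compounds were first incubated 15 min at room temperature; enzyme-free buffer wells were negative controls.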
Potency means the concentration at half of the fitted maximal effect.

| Structure (SMILES) | Potency | activity, negative = inhibition |
| --- | --- | --- |
| COc1ccc(-c2nnn3c2nc(NCc2ccccc2)c2ccccc23)cc1 | inconclusive: 89.1 µM [inhibitor, single point] |  |
| COc1cccc(NC(=O)c2oc3ccccc3c2NC(=O)COc2ccccc2C)c1 |  | inactive: 25.1% |
| CC1=C(C(=O)OCc2ccccc2)C(c2ccc3ccccc3c2)NC(=O)N1CCCC(=O)O (configuration not stated) | inconclusive: 15.8 µM [inhibitor, partial curve, poor fit] |  |
| CCOc1ccccc1NC(=O)c1c(NCc2ccc(C)o2)sc2c1CCCCC2 |  | inactive: 16.8% |
| O=c1oc2c(F)cc(F)cc2cc1S(=O)(=O)c1ccc(F)cc1 |  | inactive: -14.7% |
| Cc1cc(O)ccc1Nc1nc2ccccc2nc1Nc1ccc(O)cc1C | inconclusive: 10 µM [inhibitor, partial curve, poor fit] |  |
| O=C(Cn1cnc2c(cnn2-c2ccc(F)cc2)c1=O)NCCc1ccccc1 | inconclusive: 100 µM [inhibitor, single point] |  |
| CCCCn1c(N)c(N(CCOC)C(=O)CCNC(=O)NC23CC4CC(CC(C4)C2)C3)c(=O)[nH]c1=O | inconclusive: 3.16 µM [inhibitor, full curve, poor fit] |  |
| Cc1nn(-c2cccc(Cl)c2)c2nc(-c3ccco3)cc(C(=O)O)c12 | inconclusive: 79.4 µM [inhibitor, partial curve] |  |
| CN1CCN(CC/C=C2/c3ccccc3Sc3ccc(S(=O)(=O)N(C)C)cc32)CC1 | inconclusive: 89.1 µM [inhibitor, single point] |  |
| CCOC(=O)c1c(NC(=O)CCl)sc(C(=O)N(CC)CC)c1C | inconclusive: 11.2 µM [inhibitor, full curve, poor fit] |  |
| O=C(CCCc1ccccc1)N1CCN(C2CCCCC2)CC1 | inconclusive: 70.8 µM [inhibitor, single point] |  |
| CC(=O)C1=C(O)C(=O)N(c2nccs2)C1c1ccccc1F (configuration not stated) | inconclusive: 4.47 µM [inhibitor, full curve, poor fit] |  |
| CCCOc1ccc(N2C(=O)CC(N(Cc3ccc(S(N)(=O)=O)cc3)C(=O)CC)C2=O)cc1 (configuration not stated) | inconclusive: 39.8 µM [inhibitor, single point] |  |
| N=C1/C(=C\c2ccc(-c3cccc(Cl)c3)o2)C(=O)N=C2SC=C(c3ccccc3)N12 | inconclusive: 14.1 µM [inhibitor, full curve, poor fit] |  |
| Cc1ccc(NC(=O)C(Cc2ccccc2)NS(=O)(=O)c2ccc3c(c2)oc(=O)n3C)cc1F (configuration not stated) |  | inactive: 8.76% |
| CS(=O)(=O)c1ccc2nc(NC(=O)CCC(=O)c3cccs3)sc2c1 | inconclusive: 126 µM [inhibitor, partial curve, poor fit] |  |

Three structures out of the list, sorted by number of heavy atoms, low to high.

| Structure (SMILES) | Potency | activity, negative = inhibition |
| --- | --- | --- |
| Cc1cc(O)ccc1Nc1nc2ccccc2nc1Nc1ccc(O)cc1C | inconclusive: 10 µM [inhibitor, partial curve, poor fit] |  |
| CN1CCN(CC/C=C2/c3ccccc3Sc3ccc(S(=O)(=O)N(C)C)cc32)CC1 | inconclusive: 89.1 µM [inhibitor, single point] |  |
| Cc1ccc(NC(=O)C(Cc2ccccc2)NS(=O)(=O)c2ccc3c(c2)oc(=O)n3C)cc1F (configuration not stated) |  | inactive: 8.76% |
